Taken from: PubChem BioAssay AID1224830 (NIAID, 2016)
Purpose: 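Genes whose knock-down alters the TNF-alpha reporter response to LPS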 (primary screen). System: human THP-1 monocytic leukaemia cells, TNF dual-luciferase reporter clone, PMA-differentiated to macrophage-like cells. Knock-down reagent: siRNA pool against human genes, 50 nM. Time to read-out: LPS for 4 h, given about 3 days after siRNA transfection. Conditions: bacterial LPS (TLR4 ligand), 10 ng/ml. Measurement: 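Ratio of firefly to renilla light, scaled to the plate median and expressed as a robust z-score per replicate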. Direction: TNF reporter robust z-score: higher = stronger TNF reporter response to LPS. Hit rule: 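Each well counts as active if its z-score is over 2.8 or under -1.5; controls are left without a call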.
In all, the deposit lists about 18,000 reagents; shown is a random part of them. About 2,900 of them (16%) count as active. 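Calls are made per well; low scores hint the gene aids the LPS response, high scores that it dampens it.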 Repeated entries: four replicate wells of each siRNA pool. Reagent sequences are not shown.

NSL1 (NSL1 component of MIS12 kinetochore complex)
- TNF reporter robust z-score: -0.54
- Outcome: inactive

NSL1 (NSL1 component of MIS12 kinetochore complex)
- TNF reporter robust z-score: 1.1
- Outcome: inactive

NSL1 (NSL1 component of MIS12 kinetochore complex)
- TNF reporter robust z-score: 0.44
- Outcome: inactive

NSL1 (NSL1 component of MIS12 kinetochore complex)
- TNF reporter robust z-score: 1.37
- Outcome: inactive

MAPK3 (mitogen-activated protein kinase 3)
- TNF reporter robust z-score: -0.55
- Outcome: inactive

MAPK3 (mitogen-activated protein kinase 3)
- TNF reporter robust z-score: 0.49
- Outcome: inactive

MAPK3 (mitogen-activated protein kinase 3)
- TNF reporter robust z-score: -0.35
- Outcome: inactive

MAPK3 (mitogen-activated protein kinase 3)
- TNF reporter robust z-score: 0.52
- Outcome: inactive

PRRT1 (proline rich transmembrane protein 1)
- TNF reporter robust z-score: -1.8
- Outcome: active

PRRT1 (proline rich transmembrane protein 1)
- TNF reporter robust z-score: -1.97
- Outcome: active

PRRT1 (proline rich transmembrane protein 1)
- TNF reporter robust z-score: -1.31
- Outcome: inactive

PRRT1 (proline rich transmembrane protein 1)
- TNF reporter robust z-score: -1.73
- Outcome: active

DUX5 (double homeobox 5)
- TNF reporter robust z-score: -0.09
- Outcome: inactive

DUX5 (double homeobox 5)
- TNF reporter robust z-score: -0.29
- Outcome: inactive

DUX5 (double homeobox 5)
- TNF reporter robust z-score: -0.18
- Outcome: inactive

DUX5 (double homeobox 5)
- TNF reporter robust z-score: 1.22
- Outcome: inactive

SCRT1 (scratch family transcriptional repressor 1)
- Outcome: inactive

SCRT1 (scratch family transcriptional repressor 1)
- TNF reporter robust z-score: 0.31
- Outcome: inactive

SCRT1 (scratch family transcriptional repressor 1)
- TNF reporter robust z-score: 0.2
- Outcome: inactive

SCRT1 (scratch family transcriptional repressor 1)
- TNF reporter robust z-score: 0.09
- Outcome: inactive

Quoted from above for reference:
PRRT1 (proline rich transmembrane protein 1)
- TNF reporter robust z-score: -1.8
- Outcome: active

PRRT1 (proline rich transmembrane protein 1)
- TNF reporter robust z-score: -1.97
- Outcome: active

PRRT1 (proline rich transmembrane protein 1)
- TNF reporter robust z-score: -1.31
- Outcome: inactive
